No constants are given. Whether binding was seen depends on the method and setting. Binding seen in cells or lysates may run through a third protein. Some binding calls cover weakened binding; strength is not graded here.

By UniProt entry, the sequences of proteins in these tests, tags left out. Where a name states a change or a piece, a line headed by the entry shows the natural chain unless it says otherwise. Chains listed by the source or under a name are the forms on record and can include a tag or linker.
Human VEGFR2 kinase domain (KD) with 6xHis tag at the C-terminus (P35968, form named): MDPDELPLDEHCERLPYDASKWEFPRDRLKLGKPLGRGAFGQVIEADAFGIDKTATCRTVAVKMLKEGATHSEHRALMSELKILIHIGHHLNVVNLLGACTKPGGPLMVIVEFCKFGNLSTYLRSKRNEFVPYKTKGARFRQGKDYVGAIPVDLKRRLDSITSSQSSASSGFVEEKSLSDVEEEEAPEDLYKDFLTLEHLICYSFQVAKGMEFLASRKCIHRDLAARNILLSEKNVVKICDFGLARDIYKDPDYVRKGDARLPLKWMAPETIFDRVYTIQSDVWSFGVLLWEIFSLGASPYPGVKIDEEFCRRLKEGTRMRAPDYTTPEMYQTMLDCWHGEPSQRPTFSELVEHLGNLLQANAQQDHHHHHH

The assay has as its target Human VEGFR2 kinase domain (KD) with 6xHis tag at the C-terminus (human) (UniProt P35968). Description: peptide competition co-IP (anti-His) in 293T lysates; blocked ligand: epsin 1-HA; one peptide concentration (300 µM) [panel A].

Take SGEEELQLQLALAMSKEEMGCIKSKRKCRGDKGPDC (L-isomer amino acids) [UPI peptide made of L-isomer amino acids]: the binding result is reported as “binds”.

Values taken from patent US20180305423A1 (OKLAHOMA MEDICAL RESEARCH FOUNDATION, published 2018).
